For at least one compound, name, drawing or mass did not settle the structure.
Experiment: Sub-chronic effects on adiposity/body weight in diet-induced obese mice
Format: in vivo, C57BL/6J mice
Settings: DIO mice, 5 nmol/kg s.c. twice daily for 31 days
Method: Male C57BL/6J mice (Taconic A/S, Denmark) at an age of 5 weeks were maintained on a 12:12 hour light-dark cycle on a high-fat diet (60% of total energy from fat, D12492, Research Diet Inc.) for 20 weeks. All mice (housed 2 per cage) were then mock-treated for a week to acclimatize the animals to handling and injections. Subsequently, the mice were stratified according to body fat mass (measured by magnetic resonance technique) and body weight into 9 groups (n=9-12). Animals were thereafter treated twice daily with subcutaneous injections (5 ml/kg) of vehicle (25 mM phosphate buffer, pH 7.4) or test substances (5 nmol/kg per administration, in equivalent amount of vehicle) for a total of 31 days. The daily injections were given at the start and at the end of the light phase. Body weight, food and water intake were determined daily throughout the study. The data are presented in Table 6 as mean body weight change±S.E.M. S.E.M. is defined as standard error of the mean and was calculated using the formula: S.E.M.=SD/square root (n), where SD is the standard deviation and n the number of observations (in this case animals/group).
Statistical analyses were performed using Graph Pad Prism version 5. The measured parameters were compared using one-way ANOVA followed by Dunnett's multiple comparison test. Differences were considered statistically significant at p<0.05.

SMILES: CCCCCCCCCCCCCCCC(=O)N[C@@H](CCC(=O)NCCCC[C@H](NC(=O)[C@H](C)NC(=O)[C@H](C)NC(=O)[C@H](CCC(N)=O)NC(=O)CNC(=O)[C@H](CCC(=O)O)NC(=O)[C@H](CC(C)C)NC(=O)[C@H](Cc1ccc(O)cc1)NC(=O)[C@H](CO)NC(=O)[C@H](CO)NC(=O)[C@@H](NC(=O)[C@H](CC(=O)O)NC(=O)[C@H](CO)NC(=O)[C@@H](NC(=O)[C@H](Cc1ccccc1)NC(=O)[C@@H](NC(=O)CNC(=O)[C@H](CCC(=O)O)NC(=O)[C@H](C)NC(=O)[C@@H](N)Cc1cnc[nH]1)[C@@H](C)O)[C@@H](C)O)C(C)C)C(=O)N[C@@H](CCC(=O)O)C(=O)N[C@@H](Cc1ccccc1)C(=O)N[C@H](C(=O)N[C@@H](C)C(=O)N[C@@H](Cc1c[nH]c2ccccc12)C(=O)N[C@@H](CC(C)C)C(=O)N[C@H](C(=O)N[C@@H](CCCNC(=N)N)C(=O)NCC(=O)N[C@@H](CCCNC(=N)N)C(=O)NCC(=O)O)C(C)C)[C@@H](C)CC)C(=O)O [Liraglutide, reference compound]
- Mean body weight change: −2.3%
